Values quoted from earlier work as cited in US20190106747A1, “DRUGS, PHARMACOGENOMICS AND BIOMARKERS FOR ACIVE LONGEVITY” (Indiana University Research and Technology Corporation, priority 2016, published 2019).
Like-named read-outs stand apart in the source and are kept apart here. For at least one compound, name, drawing or mass did not settle the structure.

How the values were obtained:
[1] = tested on: RHBDF1; details: Table 6 biomarkers in females; longevity direction of change D; cited from earlier work
[2] = tested on: RNF141; details: Table 5 biomarkers in males; longevity direction of change D; cited from earlier work
[3] = tested on: GAPDH; details: longevity direction of change I, cited from earlier work
[4] = tested on: CYB5A; details: Table 5 biomarkers in males; longevity direction of change I; cited from earlier work
[5] = tested on: RAB14; details: Table 6 biomarkers in females; longevity direction of change D; cited from earlier work
[6] = tested on: UGDH; details: Table 6 biomarkers in females; longevity direction of change I; cited from earlier work
[7] = tested on: YBX1; details: Table 5 biomarkers in males; longevity direction of change I; cited from earlier work
[8] = tested on: NLGN1; details: Table 6 biomarkers in females; longevity direction of change D; cited from earlier work
[9] = tested on: CTSB; details: Table 5 biomarkers in males; longevity direction of change I; cited from earlier work
[10] = tested on: PPIF; details: Table 5 biomarkers in males; longevity direction of change I; cited from earlier work
[11] = tested on: MME; details: longevity direction of change D, cited from earlier work
[12] = tested on: CEP250; details: Table 5 biomarkers in males; longevity direction of change D; cited from earlier work
[13] = tested on: KIF3C; details: longevity direction of change D, cited from earlier work
[14] = tested on: NLGN2; details: longevity direction of change D, cited from earlier work
[15] = tested on: SCPEP1; details: longevity direction of change I, cited from earlier work
[16] = tested on: PIWIL4; details: longevity direction of change I, cited from earlier work
[17] = tested on: COX6A1; details: longevity direction of change I, cited from earlier work
[18] = tested on: MYH8; details: longevity direction of change D, cited from earlier work
[19] = tested on: NAV3; details: longevity direction of change D, cited from earlier work
[20] = tested on: TRIP13; details: Table 6 biomarkers in females; longevity direction of change I; cited from earlier work
[21] = tested on: SSR3; details: Table 6 biomarkers in females; longevity direction of change I; cited from earlier work
[22] = tested on: NLGN3; details: Table 5 biomarkers in males; longevity direction of change D; cited from earlier work

CN1CCN(C2=Nc3cc(Cl)ccc3Nc3ccccc32)CC1 [Clozapine, clozapine]
RHBDF1 modulated by drug in the same direction as longevity [1]: Yes
RNF141 modulated by drug in the same direction as longevity [2]: Yes
GAPDH modulated by drug in the same direction as longevity ([3]; Table 4 universal biomarkers): Yes
GAPDH modulated by drug in the same direction as longevity ([3]; Table 5 biomarkers in males): Yes
CYB5A modulated by drug in the same direction as longevity [4]: Yes
RAB14 modulated by drug in the same direction as longevity [5]: Yes
UGDH modulated by drug in the same direction as longevity [6]: Yes
YBX1 modulated by drug in the same direction as longevity [7]: Yes
NLGN1 modulated by drug in the same direction as longevity [8]: Yes
CTSB modulated by drug in the same direction as longevity [9]: Yes
PPIF modulated by drug in the same direction as longevity [10]: Yes
MME modulated by drug in the same direction as longevity ([11]; Table 4 universal biomarkers): Yes
MME modulated by drug in the same direction as longevity ([11]; Table 5 biomarkers in males): Yes

[Li] [Lithium, lithium]
CEP250 modulated by drug in the same direction as longevity [12]: Yes
KIF3C modulated by drug in the same direction as longevity ([13]; Table 4 universal biomarkers): Yes
KIF3C modulated by drug in the same direction as longevity ([13]; Table 5 biomarkers in males): Yes
KIF3C modulated by drug in the same direction as longevity ([13]; Table 6 biomarkers in females): Yes
NLGN2 modulated by drug in the same direction as longevity ([14]; Table 4 universal biomarkers): Yes
NLGN2 modulated by drug in the same direction as longevity ([14]; Table 5 biomarkers in males): Yes
UGDH modulated by drug in the same direction as longevity [6]: Yes
SCPEP1 modulated by drug in the same direction as longevity ([15]; Table 4 universal biomarkers): Yes
SCPEP1 modulated by drug in the same direction as longevity ([15]; Table 5 biomarkers in males): Yes
PIWIL4 modulated by drug in the same direction as longevity ([16]; Table 4 universal biomarkers): Yes
PIWIL4 modulated by drug in the same direction as longevity ([16]; Table 6 biomarkers in females): Yes
COX6A1 modulated by drug in the same direction as longevity ([17]; Table 4 universal biomarkers): Yes
COX6A1 modulated by drug in the same direction as longevity ([17]; Table 5 biomarkers in males): Yes
MYH8 modulated by drug in the same direction as longevity ([18]; Table 4 universal biomarkers): Yes
MYH8 modulated by drug in the same direction as longevity ([18]; Table 5 biomarkers in males): Yes

CCCC(CCC)C(=O)O [Valproate]
NAV3 modulated by drug in the same direction as longevity ([19]; Table 4 universal biomarkers): Valproate
NAV3 modulated by drug in the same direction as longevity ([19]; Table 5 biomarkers in males): Valproate
NAV3 modulated by drug in the same direction as longevity ([19]; Table 6 biomarkers in females): Valproate
TRIP13 modulated by drug in the same direction as longevity [20]: Valproate
SSR3 modulated by drug in the same direction as longevity [21]: Valproate
NLGN2 modulated by drug in the same direction as longevity ([14]; Table 4 universal biomarkers): Valproate
NLGN2 modulated by drug in the same direction as longevity ([14]; Table 5 biomarkers in males): Valproate
NLGN3 modulated by drug in the same direction as longevity [22]: Valproate
